In patent publication US20110183861A1 (ABLYNN N V, published 2011):
Residue numbers refer to the chain shown, from its start. In names and notes the source's numbering stands. No constants are given. Whether binding was seen depends on the method and setting. Some results given as binding are weak or reduced against the parent protein; the word gives no strength.

By UniProt entry, the sequences of proteins in these tests, tags left out. Residues count along the entry.
UniProt P04275, residues 1261-1468: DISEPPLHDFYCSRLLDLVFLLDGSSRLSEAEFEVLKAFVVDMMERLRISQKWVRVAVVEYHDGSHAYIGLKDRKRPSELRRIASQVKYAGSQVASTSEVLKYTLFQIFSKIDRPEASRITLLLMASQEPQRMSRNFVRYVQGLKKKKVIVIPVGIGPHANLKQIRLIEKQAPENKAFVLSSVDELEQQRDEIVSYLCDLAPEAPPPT
UniProt P08887, residues 20-358: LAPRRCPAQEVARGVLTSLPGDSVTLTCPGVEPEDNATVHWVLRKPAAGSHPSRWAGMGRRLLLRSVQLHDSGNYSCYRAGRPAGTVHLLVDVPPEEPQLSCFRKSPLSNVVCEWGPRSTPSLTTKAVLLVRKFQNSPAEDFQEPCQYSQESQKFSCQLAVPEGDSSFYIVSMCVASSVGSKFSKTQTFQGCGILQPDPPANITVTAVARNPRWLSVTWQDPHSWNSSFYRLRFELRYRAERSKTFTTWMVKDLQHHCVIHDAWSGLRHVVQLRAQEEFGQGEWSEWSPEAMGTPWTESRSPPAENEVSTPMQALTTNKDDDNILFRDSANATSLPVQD

B1: VWF0001; SEQ ID NO: 1 with E1D, D62E, M78T, D105Q, D193E, M209T, D236Q (VHH)
chain: DVQLVESGGGLVQPGGSLRLSCAASGRTFSYNPMGWFRQAPGKGRELVAAISRTGGSTYYPESVEGRFTISRDNAKRTVYLQMNSLRAEDTAVYYCAAAGVRAEQGRVRTLPSEYTFWGQGTQVTVSSAAAEVQLVESGGGLVQPGGSLRLSCAASGRTFSYNPMGWFRQAPGKGRELVAAISRTGGSTYYPESVEGRFTISRDNAKRTVYLQMNSLRAEDTAVYYCAAAGVRAEQGRVRTLPSEYTFWGQGTQVTVSS
B2: Stab. 12A2H1; SEQ ID NO: 2 with E1D, D62E, M78T, D105Q (VHH)
VHH: DVQLVESGGGLVQPGGSLRLSCAASGRTFSYNPMGWFRQAPGKGRELVAAISRTGGSTYYPESVEGRFTISRDNAKRTVYLQMNSLRAEDTAVYYCAAAGVRAEQGRVRTLPSEYTFWGQGTQVTVSS
notes: also called 12A2H1 SV1; 12A2h1SV1
B3: IL6R201 (VHH)
VHH: EVQLVESGGGLVQPGGSLRLSCAASGFTFSDYDIGWFRQAPGKGREGVSGISSSDGNTYYADSVKGRFTISRDNAKNTLYLQMNSLRPEDTAVYYCAAEPPDSSWYLDGSPEFFKYWGQGTLVTVSS
B4: IL6R201_D55E (VHH)
VHH: B3 VHH with D55E
B5: IL6R201_D55Q (VHH)
VHH: B3 VHH with D55Q
B6: IL6R201_D102E (VHH)
VHH: B3 VHH with D102E
B7: IL6R201_D102Q (VHH)
VHH: B3 VHH with D102Q
B8: IL6R201_D108E (VHH)
VHH: B3 VHH with D108E
B9: IL6R201_D108Q (VHH)
VHH: B3 VHH with D108Q

What follows are binders tested against A1 domain of vWF (UniProt P04275) (assay: Biacore, sensor chip coated with 3500RU vWF A1 domain, samples stored at 37° C. against reference).

binding, binds:
B1
B2

The binders below were run against A1 domain of vWF (UniProt P04275) (assay: Biacore potency assay, parallel line method).

binding, binds:
B1

What follows are binders tested against hIL-6R (human) (UniProt P08887) (assay: Biacore3000, initial binding rate on high density hIL-6R chip).

binding, binds:
B3
B4
B5
B6
B7
B8
B9
